{"source": "patent US5998594A", "about": "“Self-assembling, chromogenic receptors for the recognition of medically important substrates and their method of use” (University of Pittsburgh of the Commonwealth System of …, priority 1994, dated 1999)", "assay": "complexation with dicarboxylic acids in CHCl3 (UV-vis, NMR, Job's plot)", "assay_type": "binding", "conditions": "NMR and UV-vis", "description": "Complexation of Receptor 1 with Dicarboxylic Acids. Receptor 1 is a bis(acylaminopyridine) receptor and as such was expected to form strong bidentate interactions with dicarboxylic acids in chloroform. This was indeed the case, as 1 was found by NMR to bind glutaric acid with an association constant of 3.6×10^4 M^-1. Large changes in proton chemical shifts of 1 indicate that the dicarboxylic acid is hydrogen bonded simultaneously to the two acylaminopyridines moieties. […] The contribution of the phenanthroline to binding is uncertain, but it appears to play only a minor role; no protons on the phenanthroline ring shifted more than 0.014 ppm during the course of the titration. […] The stoichiometry of the complexes was 2:1 as determined by the concentration of dicarboxylic acid at which saturation of the receptor was found and independently determined by a Job's plot. A Job's plot is used to measure stoichiometry based on continuous variations of constant concentrations. Binding was most conveniently followed by UV-vis spectroscopy (ΔA550) and was checked against NMR results for pimelic acid and glutaric acid. The binding data was analyzed by assuming that two independent and equal bidentate binding sites are interacting with the substrate. In this way a single association constant is obtained that represents the strength of binding of one of the receptor binding sites with one substrate. […]", "note": "At least one compound was matched to its structure with a doubt left."}
{"smiles": "Cc1cccc(NC(=O)c2ccc(-c3ccc4ccc5ccc(-c6ccc(C(=O)Nc7cccc(C)n7)cc6)nc5c4n3)cc2)n1.Cc1cccc(NC(=O)c2ccc(-c3ccc4ccc5ccc(-c6ccc(C(=O)Nc7cccc(C)n7)cc6)nc5c4n3)cc2)n1.F[B-](F)(F)F.[Cu+]", "note": "[Cu(1)2^+ BF4^-]", "values": [{"measurement": "association constants (Ka), summary range", "result": "0.5-8×104"}]}
